Data from PMC9988210.
These are yes or no findings as the source states them, for the method shown. Binding seen in cells or lysates may run through a third protein. Here binding means that the protein was enriched with, or labelled near, the bait; the list need not be complete. Tags and fused reporters may be left off the sequences shown.

Protein sequences, listed by entry. Tags and fused reporters are not part of them. Residues count along the entry.
UniProt P38646, residues 47-679: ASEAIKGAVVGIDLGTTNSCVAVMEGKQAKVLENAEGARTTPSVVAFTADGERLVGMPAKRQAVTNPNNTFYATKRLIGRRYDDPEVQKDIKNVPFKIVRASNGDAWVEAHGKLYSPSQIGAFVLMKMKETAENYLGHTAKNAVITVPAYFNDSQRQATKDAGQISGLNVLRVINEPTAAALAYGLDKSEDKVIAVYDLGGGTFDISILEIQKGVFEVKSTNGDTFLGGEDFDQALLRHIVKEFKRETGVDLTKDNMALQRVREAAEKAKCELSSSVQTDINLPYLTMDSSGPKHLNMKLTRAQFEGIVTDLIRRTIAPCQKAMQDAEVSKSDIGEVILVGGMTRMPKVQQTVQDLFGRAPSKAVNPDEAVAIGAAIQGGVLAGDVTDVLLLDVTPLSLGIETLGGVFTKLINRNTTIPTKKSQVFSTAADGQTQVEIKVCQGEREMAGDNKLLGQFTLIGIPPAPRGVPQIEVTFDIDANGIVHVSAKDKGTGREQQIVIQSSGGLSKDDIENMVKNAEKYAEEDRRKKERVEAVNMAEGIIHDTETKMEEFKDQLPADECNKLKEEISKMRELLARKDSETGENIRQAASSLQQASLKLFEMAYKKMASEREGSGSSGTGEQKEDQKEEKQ
UniProt Q3ZCQ8, residues 45-353: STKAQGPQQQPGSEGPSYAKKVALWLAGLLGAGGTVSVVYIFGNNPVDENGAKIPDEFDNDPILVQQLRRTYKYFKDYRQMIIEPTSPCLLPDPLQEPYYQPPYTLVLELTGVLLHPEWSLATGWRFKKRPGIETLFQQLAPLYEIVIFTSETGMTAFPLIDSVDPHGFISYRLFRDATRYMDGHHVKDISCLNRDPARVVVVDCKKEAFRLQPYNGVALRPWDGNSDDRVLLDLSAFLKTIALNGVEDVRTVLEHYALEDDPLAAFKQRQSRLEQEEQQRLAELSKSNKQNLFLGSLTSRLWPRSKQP
UniProt Q8TEM1, residues 27-1887: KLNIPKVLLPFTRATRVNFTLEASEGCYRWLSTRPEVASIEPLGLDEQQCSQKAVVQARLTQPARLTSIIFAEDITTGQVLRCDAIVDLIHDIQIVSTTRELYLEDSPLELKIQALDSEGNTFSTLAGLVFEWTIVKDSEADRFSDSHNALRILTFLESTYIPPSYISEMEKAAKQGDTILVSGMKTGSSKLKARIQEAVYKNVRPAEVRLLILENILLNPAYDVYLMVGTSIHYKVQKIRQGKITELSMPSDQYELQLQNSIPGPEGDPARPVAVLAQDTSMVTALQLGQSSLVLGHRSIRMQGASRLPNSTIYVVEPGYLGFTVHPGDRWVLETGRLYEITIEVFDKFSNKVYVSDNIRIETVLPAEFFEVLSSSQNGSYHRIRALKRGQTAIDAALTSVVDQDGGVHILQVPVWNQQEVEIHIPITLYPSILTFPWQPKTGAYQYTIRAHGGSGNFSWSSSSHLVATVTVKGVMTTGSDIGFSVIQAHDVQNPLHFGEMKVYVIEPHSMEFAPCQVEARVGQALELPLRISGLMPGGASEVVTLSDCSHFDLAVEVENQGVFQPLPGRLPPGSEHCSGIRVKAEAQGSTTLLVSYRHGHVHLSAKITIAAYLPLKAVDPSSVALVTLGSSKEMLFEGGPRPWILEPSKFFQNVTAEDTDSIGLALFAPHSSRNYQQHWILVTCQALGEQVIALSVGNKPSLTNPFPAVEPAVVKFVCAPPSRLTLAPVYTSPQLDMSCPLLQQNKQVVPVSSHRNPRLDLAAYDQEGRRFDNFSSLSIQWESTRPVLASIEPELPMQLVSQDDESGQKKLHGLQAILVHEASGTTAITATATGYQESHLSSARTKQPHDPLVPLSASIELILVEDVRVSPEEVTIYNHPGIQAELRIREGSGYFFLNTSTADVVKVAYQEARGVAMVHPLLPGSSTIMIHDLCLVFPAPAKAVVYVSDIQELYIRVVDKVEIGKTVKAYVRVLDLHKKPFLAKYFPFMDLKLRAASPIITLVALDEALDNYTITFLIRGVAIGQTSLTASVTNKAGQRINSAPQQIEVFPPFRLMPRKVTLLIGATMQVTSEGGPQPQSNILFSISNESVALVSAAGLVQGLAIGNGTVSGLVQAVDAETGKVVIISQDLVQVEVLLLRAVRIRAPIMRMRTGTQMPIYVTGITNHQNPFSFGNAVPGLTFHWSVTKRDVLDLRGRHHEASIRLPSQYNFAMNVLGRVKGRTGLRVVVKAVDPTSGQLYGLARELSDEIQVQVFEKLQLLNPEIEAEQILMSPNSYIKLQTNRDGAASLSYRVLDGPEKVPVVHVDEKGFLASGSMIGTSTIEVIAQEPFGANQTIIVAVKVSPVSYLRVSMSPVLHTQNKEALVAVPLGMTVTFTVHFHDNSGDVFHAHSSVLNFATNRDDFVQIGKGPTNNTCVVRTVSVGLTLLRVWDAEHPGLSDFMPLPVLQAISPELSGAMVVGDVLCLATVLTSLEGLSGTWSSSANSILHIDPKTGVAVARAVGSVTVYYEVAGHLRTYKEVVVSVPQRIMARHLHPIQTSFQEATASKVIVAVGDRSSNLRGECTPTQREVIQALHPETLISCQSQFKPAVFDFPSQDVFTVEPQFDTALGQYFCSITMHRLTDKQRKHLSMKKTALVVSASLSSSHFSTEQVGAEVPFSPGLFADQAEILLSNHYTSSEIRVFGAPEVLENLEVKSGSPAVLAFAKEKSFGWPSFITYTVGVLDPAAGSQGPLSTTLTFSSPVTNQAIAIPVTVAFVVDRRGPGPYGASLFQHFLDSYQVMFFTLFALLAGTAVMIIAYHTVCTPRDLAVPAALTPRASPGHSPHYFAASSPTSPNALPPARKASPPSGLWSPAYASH
UniProt P08238: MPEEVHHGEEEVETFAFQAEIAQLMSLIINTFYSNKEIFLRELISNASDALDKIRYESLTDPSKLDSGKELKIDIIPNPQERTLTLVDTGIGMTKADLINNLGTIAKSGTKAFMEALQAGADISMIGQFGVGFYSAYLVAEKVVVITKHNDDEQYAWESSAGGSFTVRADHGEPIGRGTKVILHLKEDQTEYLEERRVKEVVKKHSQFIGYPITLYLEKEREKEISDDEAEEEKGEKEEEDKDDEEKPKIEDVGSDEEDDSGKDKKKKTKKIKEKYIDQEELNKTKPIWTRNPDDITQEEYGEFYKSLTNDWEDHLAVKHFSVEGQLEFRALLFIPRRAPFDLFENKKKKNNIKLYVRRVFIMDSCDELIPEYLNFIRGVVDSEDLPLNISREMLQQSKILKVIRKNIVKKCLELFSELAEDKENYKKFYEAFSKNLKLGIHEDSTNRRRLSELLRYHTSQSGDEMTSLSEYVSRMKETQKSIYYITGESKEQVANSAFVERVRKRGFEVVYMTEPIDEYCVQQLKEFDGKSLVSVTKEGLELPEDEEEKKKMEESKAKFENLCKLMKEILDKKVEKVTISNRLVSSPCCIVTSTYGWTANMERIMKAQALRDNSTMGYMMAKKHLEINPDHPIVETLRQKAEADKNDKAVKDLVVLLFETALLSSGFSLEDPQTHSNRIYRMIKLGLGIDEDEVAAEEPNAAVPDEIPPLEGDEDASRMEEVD
UniProt A6NIH7: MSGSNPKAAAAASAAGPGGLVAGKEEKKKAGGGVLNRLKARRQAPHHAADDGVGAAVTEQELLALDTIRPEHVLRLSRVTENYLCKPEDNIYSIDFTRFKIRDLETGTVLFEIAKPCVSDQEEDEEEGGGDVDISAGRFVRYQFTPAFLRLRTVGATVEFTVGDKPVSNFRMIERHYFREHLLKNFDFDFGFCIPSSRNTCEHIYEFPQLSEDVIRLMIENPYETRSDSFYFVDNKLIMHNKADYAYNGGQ
UniProt P11142: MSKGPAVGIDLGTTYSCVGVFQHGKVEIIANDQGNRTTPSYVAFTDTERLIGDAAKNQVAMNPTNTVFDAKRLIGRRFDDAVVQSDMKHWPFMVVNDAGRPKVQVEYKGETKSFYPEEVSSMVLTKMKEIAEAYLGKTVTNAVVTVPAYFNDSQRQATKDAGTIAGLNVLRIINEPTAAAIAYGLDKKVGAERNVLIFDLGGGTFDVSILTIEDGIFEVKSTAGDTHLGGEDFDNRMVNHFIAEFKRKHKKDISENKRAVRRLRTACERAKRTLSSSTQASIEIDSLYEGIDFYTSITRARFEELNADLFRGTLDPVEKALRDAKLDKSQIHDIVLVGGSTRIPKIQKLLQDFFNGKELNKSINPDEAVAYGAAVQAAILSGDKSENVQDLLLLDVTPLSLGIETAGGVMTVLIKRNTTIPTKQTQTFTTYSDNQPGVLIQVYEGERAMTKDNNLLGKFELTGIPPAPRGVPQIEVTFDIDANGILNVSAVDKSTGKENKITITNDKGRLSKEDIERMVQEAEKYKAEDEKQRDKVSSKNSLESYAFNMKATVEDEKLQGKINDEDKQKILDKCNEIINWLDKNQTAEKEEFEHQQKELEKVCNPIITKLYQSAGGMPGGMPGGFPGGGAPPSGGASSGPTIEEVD
UniProt Q8WW22: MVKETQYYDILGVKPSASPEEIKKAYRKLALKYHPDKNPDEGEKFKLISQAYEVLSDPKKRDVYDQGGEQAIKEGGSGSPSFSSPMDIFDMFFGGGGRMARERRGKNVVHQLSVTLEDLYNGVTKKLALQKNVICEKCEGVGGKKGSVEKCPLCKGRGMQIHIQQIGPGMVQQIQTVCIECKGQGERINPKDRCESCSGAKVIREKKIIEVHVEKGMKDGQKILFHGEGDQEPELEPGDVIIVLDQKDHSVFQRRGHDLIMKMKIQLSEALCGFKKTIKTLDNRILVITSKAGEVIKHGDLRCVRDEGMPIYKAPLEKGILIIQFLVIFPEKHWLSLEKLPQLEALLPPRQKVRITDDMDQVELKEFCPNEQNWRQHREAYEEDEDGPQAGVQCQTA
UniProt O60884: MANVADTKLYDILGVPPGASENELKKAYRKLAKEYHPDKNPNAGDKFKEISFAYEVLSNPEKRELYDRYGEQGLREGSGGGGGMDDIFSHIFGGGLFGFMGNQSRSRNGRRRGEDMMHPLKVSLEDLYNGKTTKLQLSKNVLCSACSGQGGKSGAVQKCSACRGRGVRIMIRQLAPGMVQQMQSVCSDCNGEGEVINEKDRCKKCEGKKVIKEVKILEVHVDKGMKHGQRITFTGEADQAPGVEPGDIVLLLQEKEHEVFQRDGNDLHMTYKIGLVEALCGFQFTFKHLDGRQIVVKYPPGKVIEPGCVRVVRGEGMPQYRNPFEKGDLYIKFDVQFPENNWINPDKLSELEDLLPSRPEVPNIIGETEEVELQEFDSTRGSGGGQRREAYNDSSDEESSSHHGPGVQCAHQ

T1: C-terminal STREP-tagged PSKH2 (human) (UniProt Q96QS6)
T1 sequence: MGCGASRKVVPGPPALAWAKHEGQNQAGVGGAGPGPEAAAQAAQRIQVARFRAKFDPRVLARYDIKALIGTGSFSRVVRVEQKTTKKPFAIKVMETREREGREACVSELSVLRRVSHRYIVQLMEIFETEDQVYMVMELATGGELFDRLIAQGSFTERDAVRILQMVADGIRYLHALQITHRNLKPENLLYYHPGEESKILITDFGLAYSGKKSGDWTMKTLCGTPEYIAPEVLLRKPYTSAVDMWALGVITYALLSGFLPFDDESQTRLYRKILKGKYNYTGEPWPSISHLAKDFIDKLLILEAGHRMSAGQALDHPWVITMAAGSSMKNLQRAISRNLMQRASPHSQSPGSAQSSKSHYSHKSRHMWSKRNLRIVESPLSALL

T2: N-terminal STREP-tagged PSKH2 (human) (UniProt Q96QS6)
T2 sequence: T1 sequence

B1: TIMM23 (protein, UniProt O14925 1-209)
chain: MEGGGGSGNKTTGGLAGFFGAGGAGYSHADLAGVPLTGMNPLSPYLNVDPRYLVQDTDEFILPTGANKTRGRFELAFFTIGGCCMTGAAFGAMNGLRLGLKETQNMAWSKPRNVQILNMVTRQGALWANTLGSLALLYSAFGVIIEKTRGAEDDLNTVAAGTMTGMLYKCTGGLRGIARGGLTGLTLTSLYALYNNWEHMKGSLLQQSL
B2: TOMM40 (protein, UniProt O96008 1-361)
chain: MGNVLAASSPPAGPPPPPAPALVGLPPPPPSPPGFTLPPLGGSLGAGTSTSRSSERTPGAATASASGAAEDGACGCLPNPGTFEECHRKCKELFPIQMEGVKLTVNKGLSNHFQVNHTVALSTIGESNYHFGVTYVGTKQLSPTEAFPVLVGDMDNSGSLNAQVIHQLGPGLRSKMAIQTQQSKFVNWQVDGEYRGSDFTAAVTLGNPDVLVGSGILVAHYLQSITPCLALGGELVYHRRPGEEGTVMSLAGKYTLNNWLATVTLGQAGMHATYYHKASDQLQVGVEFEASTRMQDTSVSFGYQLDLPKANLLFKGSVDSNWIVGATLEKKLPPLPLTLALGAFLNHRKNKFQCGFGLTIG
B3: SLC25A6 (protein, UniProt P12236 1-298)
chain: MTEQAISFAKDFLAGGIAAAISKTAVAPIERVKLLLQVQHASKQIAADKQYKGIVDCIVRIPKEQGVLSFWRGNLANVIRYFPTQALNFAFKDKYKQIFLGGVDKHTQFWRYFAGNLASGGAAGATSLCFVYPLDFARTRLAADVGKSGTEREFRGLGDCLVKITKSDGIRGLYQGFSVSVQGIIIYRAAYFGVYDTAKGMLPDPKNTHIVVSWMIAQTVTAVAGVVSYPFDTVRRRMMMQSGRKGADIMYTGTVDCWRKIFRDEGGKAFFKGAWSNVLRGMGGAFVLVLYDELKKVI
B4: Geranylgeranyl transferase type-2 subunit beta (RABGGTB) (protein, UniProt P53611 1-331)
chain: MGTPQKDVIIKSDAPDTLLLEKHADYIASYGSKKDDYEYCMSEYLRMSGIYWGLTVMDLMGQLHRMNREEILAFIKSCQHECGGISASIGHDPHLLYTLSAVQILTLYDSINVIDVNKVVEYVKGLQKEDGSFAGDIWGEIDTRFSFCAVATLALLGKLDAINVEKAIEFVLSCMNFDGGFGCRPGSESHAGQIYCCTGFLAITSQLHQVNSDLLGWWLCERQLPSGGLNGRPEKLPDVCYSWWVLASLKIIGRLHWIDREKLRNFILACQDEETGGFADRPGDMVDPFHTLFGIAGLSLLGEEQIKPVNPVFCMPEEVLQRVNVQPELVS
B5: NUP160 (protein, UniProt Q12769 1-1436)
chain: MLHLSAAPPAPPPEVTATARPCLCSVGRRGDGGKMAAAGALERSFVELSGAERERPRHFREFTVCSIGTANAVAGAVKYSESAGGFYYVESGKLFSVTRNRFIHWKTSGDTLELMEESLDINLLNNAIRLKFQNCSVLPGGVYVSETQNRVIILMLTNQTVHRLLLPHPSRMYRSELVVDSQMQSIFTDIGKVDFTDPCNYQLIPAVPGISPNSTASTAWLSSDGEALFALPCASGGIFVLKLPPYDIPGMVSVVELKQSSVMQRLLTGWMPTAIRGDQSPSDRPLSLAVHCVEHDAFIFALCQDHKLRMWSYKEQMCLMVADMLEYVPVKKDLRLTAGTGHKLRLAYSPTMGLYLGIYMHAPKRGQFCIFQLVSTESNRYSLDHISSLFTSQETLIDFALTSTDIWALWHDAENQTVVKYINFEHNVAGQWNPVFMQPLPEEEIVIRDDQDPREMYLQSLFTPGQFTNEALCKALQIFCRGTERNLDLSWSELKKEVTLAVENELQGSVTEYEFSQEEFRNLQQEFWCKFYACCLQYQEALSHPLALHLNPHTNMVCLLKKGYLSFLIPSSLVDHLYLLPYENLLTEDETTISDDVDIARDVICLIKCLRLIEESVTVDMSVIMEMSCYNLQSPEKAAEQILEDMITIDVENVMEDICSKLQEIRNPIHAIGLLIREMDYETEVEMEKGFNPAQPLNIRMNLTQLYGSNTAGYIVCRGVHKIASTRFLICRDLLILQQLLMRLGDAVIWGTGQLFQAQQDLLHRTAPLLLSYYLIKWGSECLATDVPLDTLESNLQHLSVLELTDSGALMANRFVSSPQTIVELFFQEVARKHIISHLFSQPKAPLSQTGLNWPEMITAITSYLLQLLWPSNPGCLFLECLMGNCQYVQLQDYIQLLHPWCQVNVGSCRFMLGRCYLVTGEGQKALECFCQAASEVGKEEFLDRLIRSEDGEIVSTPRLQYYDKVLRLLDVIGLPELVIQLATSAITEAGDDWKSQATLRTCIFKHHLDLGHNSQAYEALTQIPDSSRQLDCLRQLVVVLCERSQLQDLVEFPYVNLHNEVVGIIESRARAVDLMTHNYYELLYAFHIYRHNYRKAGTVMFEYGMRLGREVRTLRGLEKQGNCYLAALNCLRLIRPEYAWIVQPVSGAVYDRPGASPKRNHDGECTAAPTNRQIEILELEDLEKECSLARIRLTLAQHDPSAVAVAGSSSAEEMVTLLVQAGLFDTAISLCQTFKLPLTPVFEGLAFKCIKLQFGGEAAQAEAWAWLAANQLSSVITTKESSATDEAWRLLSTYLERYKVQNNLYHHCVINKLLSHGVPLPNWLINSYKKVDAAELLRLYLNYDLLEEAVDLVSEYVDAVLGKGHQYFGIEFPLSATAPMVWLPYSSIDQLLQALGENSANSHNIALSQKILDKLEDYQQKVDKATRDLLYRRTL
B6: RANBP3 (protein, UniProt Q9H6Z4 1-567)
chain: MADLANEEKPAIAPPVFVFQKDKGQKSPAEQKNLSDSGEEPRGEAEAPHHGTGHPESAGEHALEPPAPAGASASTPPPPAPEAQLPPFPRELAGRSAGGSSPEGGEDSDREDGNYCPPVKRERTSSLTQFPPSQSEERSSGFRLKPPTLIHGQAPSAGLPSQKPKEQQRSVLRPAVLQAPQPKALSQTVPSSGTNGVSLPADCTGAVPAASPDTAAWRSPSEAADEVCALEEKEPQKNESSNASEEEACEKKDPATQQAFVFGQNLRDRVKLINESVDEADMENAGHPSADTPTATNYFLQYISSSLENSTNSADASSNKFVFGQNMSERVLSPPKLNEVSSDANRENAAAESGSESSSQEATPEKESLAESAAAYTKATARKCLLEKVEVITGEEAESNVLQMQCKLFVFDKTSQSWVERGRGLLRLNDMASTDDGTLQSRLVMRTQGSLRLILNTKLWAQMQIDKASEKSIRITAMDTEDQGVKVFLISASSKDTGQLYAALHHRILALRSRVEQEQEAKMPAPEPGAAPSNEEDDSDDDDVLAPSGATAAGAGDEGDGQTTGST
B7: Cdc37 (protein, UniProt Q16543 1-378)
chain: MVDYSVWDHIEVSDDEDETHPNIDTASLFRWRHQARVERMEQFQKEKEELDRGCRECKRKVAECQRKLKELEVAEGGKAELERLQAEAQQLRKEERSWEQKLEEMRKKEKSMPWNVDTLSKDGFSKSMVNTKPEKTEEDSEEVREQKHKTFVEKYEKQIKHFGMLRRWDDSQKYLSDNVHLVCEETANYLVIWCIDLEVEEKCALMEQVAHQTIVMQFILELAKSLKVDPRACFRQFFTKIKTADRQYMEGFNDELEAFKERVRGRAKLRIEKAMKEYEEEERKKRLGPGGLDPVEVYESLPEELQKCFDVKDVQMLQDAISKMDPTDAKYHMQRCIDSGLWVPNSKASEAKEGEEAGPGDPLLEAVPKTGDEKDVSV

Experiments:
[1] = target: T1, C-terminal STREP-tagged PSKH2 (human); assay: affinity purification with mass spectrometry; N- or C-terminal STREP-tagged PSKH2 isolated from HEK-293T cells in triplicate on Strep-TACTIN beads with DDM, eluted with 3C protease, LC-MS/MS, label-free quantification against an EGFP-transfected control
[2] = target: T2, N-terminal STREP-tagged PSKH2 (human); assay: as above

| Molecule | binding [1] | binding [2] |
| --- | --- | --- |
| HSPA9 (from UniProt P38646 47-679) | binds | binds |
| CDC25C (human (endogenous in HEK-293T)) | binds | binds |
| TIMM50 (from UniProt Q3ZCQ8 45-353) | binds | binds |
| NUP210 (from UniProt Q8TEM1 27-1887) | binds | binds |
| HSP90β (from UniProt P08238 1-724) | binds | binds |
| UNC119B (from UniProt A6NIH7 1-251) | binds |  |
| HSPA8 (from UniProt P11142 1-646) | binds | binds |
| DNAJA1 (from UniProt P31689 1-397) | binds | binds |
| DNAJA4 (from UniProt Q8WW22 1-397) | binds | binds |
| DNAJA2 (from UniProt O60884 1-412) | binds | binds |
| B1 | binds | binds |
| B2 | binds | binds |
| B3 | binds | binds |
| B4 | binds |  |
| B5 | binds | binds |
| B6 | binds | binds |
| B7 | binds | binds |
